Data on one substance can be found in publication PMC9054797.

By UniProt entry, the sequences of proteins in these tests, tags left out.
UniProt P09104: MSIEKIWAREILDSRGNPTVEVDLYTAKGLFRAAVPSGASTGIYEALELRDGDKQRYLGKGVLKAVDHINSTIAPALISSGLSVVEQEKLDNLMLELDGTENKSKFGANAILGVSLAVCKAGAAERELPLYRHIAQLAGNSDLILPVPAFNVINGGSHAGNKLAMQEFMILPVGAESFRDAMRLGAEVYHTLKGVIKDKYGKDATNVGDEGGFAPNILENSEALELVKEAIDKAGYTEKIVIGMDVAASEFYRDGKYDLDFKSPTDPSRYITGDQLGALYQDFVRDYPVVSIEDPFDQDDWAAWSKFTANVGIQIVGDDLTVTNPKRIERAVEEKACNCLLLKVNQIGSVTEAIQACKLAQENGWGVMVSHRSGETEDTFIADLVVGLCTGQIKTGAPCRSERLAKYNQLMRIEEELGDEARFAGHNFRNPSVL

For this assay, the target named is T1, Neuroblastoma suppressor of tumorigenicity 1 (human) (UniProt P41271).
T1 sequence: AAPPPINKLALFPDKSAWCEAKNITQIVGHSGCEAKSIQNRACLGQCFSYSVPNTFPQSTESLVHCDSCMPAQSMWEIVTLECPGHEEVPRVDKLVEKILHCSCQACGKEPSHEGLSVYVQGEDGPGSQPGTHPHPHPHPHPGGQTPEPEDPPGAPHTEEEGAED
The assay can be described thus: co-IP; cell lysate in low-salt IP buffer; IgG, GFP or FLAG antibody (1 µg) overnight, protein A/G beads 2 h, western blot. (In general: Immunoblotting shows a protein as a band on a membrane.)

These are yes or no findings as the source states them, for the method shown. In cells and extracts the contact can be indirect. Some binding calls cover weakened binding; strength is not graded here.

For “Neuron-specific enolase (from UniProt P09104 1-434) (enzyme)”, the binding entry was “binds”.
